Data published in patent publication US20130197073A1, “HYPOCHOLESTEROLEMIC, ANTI-INFLAMMATORY AND ANTIEPILEPTIC NEUROPROTECTIVE COMPOUND” (NEURON BIOPHARMA, S.A., priority 2010, published 2013).
At least one compound was matched to its structure with a doubt left.

Tested on: TNFα
Assay: LPS model of systemic inflammation in mice, plasma TNFα, NST0060 compared with simvastatin
Format: in vivo
Settings: two i.p. doses of 50 mg/kg (lactone forms); 2 hours after LPS 8 mg/kg i.p.
Description: The investigators considered necessary to evaluate alternative activities with respect to hypocholesterolemic and neuroprotective activities given the characteristics and properties of the molecule. […] To evaluate this activity, a model of systemic shock in mice induced by lipopolysaccharide (LPS), a component of the gram negative bacteria structure that induces a cytokine-mediated, mainly TNFα-mediated, inflammatory response was used.
All the animals included during the experimental process were 12-week old male C57BL6 mice. The experiments were carried out strictly complying with the standard entitled Guidance on the Operation of Animals (Scientific Procedures, Act. 1986). The animals were subjected to their respective quarantine period and were treated with maximum precaution to minimize possible contaminations during treatments and handling.
In both cases 0.5% methyl cellulose in physiological saline, which was administered to mice in the control group with the same administration regimen, was used as a vehicle. Peripheral systemic inflammation was induced one hour after the last treatment by means of a single i.p. injection of LPS at 8 mg/kg. Two hours later blood was taken and plasma was obtained, which was used to evaluate the anti-inflammatory effect by analyzing plasma concentrations of TNFα by means of ELISA.

Compound: CCC(C)(C)C(=O)O[C@H]1C[C@@H](C)C=C2C=C[C@H](C)[C@H](CC[C@@H]3C[C@@H](O)CC(=O)O3)[C@H]21 [simvastatin, reference compound]
- TNFα plasma levels with respect to the control group: large decrease in said levels that is significant with respect to the control group
